From patent EP0420021B1, “Hydrophilic laminated porous membranes and methods of preparing same” (ABBOTT LABORATORIES, priority 1989, dated 1991)
Some compounds share one wording; it may come from a single statement.

System: anti-HCG antibody
Test: Immunochromatography signal development (antibody binding to surfactant-treated nitrocellulose membrane)
[1] = Part D: surfactant 1% w/v from isopropanol solution

C[C@H](CCC(=O)NCCC[N+](C)(C)CCCS(=O)(=O)[O-])[C@H]1CC[C@H]2[C@@H]3[C@H](O)C[C@@H]4C[C@H](O)CC[C@]4(C)[C@H]3C[C@H](O)[C@]12C [CHAPS]
signal development during immunochromatography (Part A: surfactant 1% w/v from water, 50 mIU HCG urine): loss of signal development

CCCCCCCCCCCCCCCC[N+](C)(C)CC.[Br-] [cethydimethylethylammonium Br]
signal development during immunochromatography [1]: no decrease in signal development

CCCCCCCS(=O)(=O)O [heptane sulfonic acid]
signal development during immunochromatography (Part E: 1% in water solution): no decrease in signal development

CCCCCCCCCCS(=O)(=O)O [decane sulfonic acid]
signal development during immunochromatography (Part E: 1% in water solution): no decrease in signal development

CCCCCS(=O)(=O)O [pentane sulfonic acid]
signal development during immunochromatography (Part E: 1% in water solution): no decrease in signal development

CCCCCCCCS(=O)(=O)O [octane sulfonic acid]
signal development during immunochromatography (Part E: 1% in water solution): no decrease in signal development

CCCCCCCCCCCCS(=O)(=O)O [dodecane sulfonic acid]
signal development during immunochromatography (Part E: 0.1% in water solution): no decrease in signal development

CCCCCCCCOC(=O)CC(C(=O)OCCCCCCCC)S(=O)(=O)O (stereo not drawn) [dioctyl sulfosuccinate]
signal development during immunochromatography (Part A: surfactant 1% w/v from isopropanol, 50 mIU HCG urine): loss of signal development

CCCCCCCCCCCC[N+](C)(C)C.[Br-] [dodecyltrimethylammonium Br, dodecyltrimethylammonium bromide]
signal development during immunochromatography [1]: no decrease in signal development

CCCCCCCCCCCCCCCCO [cetyl alcohol]
signal development during immunochromatography (Part B: surfactant 0.1% w/v from isopropanol, 50 mIU HCG urine): no reduction in signal development

CCCCCCCCCCCCOS(=O)(=O)[O-].[Na+] [sodium dodecyl sulfate]
signal development during immunochromatography (Part E: 0.1% in water solution): no decrease in signal development

CCCCCCCCCCCCCCCC[N+](C)(C)C.[Br-] [hexadecyltrimethylammonium Br, hexadecyltrimethylammonium bromide]
signal development during immunochromatography [1]: no decrease in signal development
